# Some of the results follow.
# Sequences of proteins named here, by UniProt entry; tags and fusion partners are left off. A change or cut given only in a name is not applied to a line headed by its entry.
# UniProt P23497: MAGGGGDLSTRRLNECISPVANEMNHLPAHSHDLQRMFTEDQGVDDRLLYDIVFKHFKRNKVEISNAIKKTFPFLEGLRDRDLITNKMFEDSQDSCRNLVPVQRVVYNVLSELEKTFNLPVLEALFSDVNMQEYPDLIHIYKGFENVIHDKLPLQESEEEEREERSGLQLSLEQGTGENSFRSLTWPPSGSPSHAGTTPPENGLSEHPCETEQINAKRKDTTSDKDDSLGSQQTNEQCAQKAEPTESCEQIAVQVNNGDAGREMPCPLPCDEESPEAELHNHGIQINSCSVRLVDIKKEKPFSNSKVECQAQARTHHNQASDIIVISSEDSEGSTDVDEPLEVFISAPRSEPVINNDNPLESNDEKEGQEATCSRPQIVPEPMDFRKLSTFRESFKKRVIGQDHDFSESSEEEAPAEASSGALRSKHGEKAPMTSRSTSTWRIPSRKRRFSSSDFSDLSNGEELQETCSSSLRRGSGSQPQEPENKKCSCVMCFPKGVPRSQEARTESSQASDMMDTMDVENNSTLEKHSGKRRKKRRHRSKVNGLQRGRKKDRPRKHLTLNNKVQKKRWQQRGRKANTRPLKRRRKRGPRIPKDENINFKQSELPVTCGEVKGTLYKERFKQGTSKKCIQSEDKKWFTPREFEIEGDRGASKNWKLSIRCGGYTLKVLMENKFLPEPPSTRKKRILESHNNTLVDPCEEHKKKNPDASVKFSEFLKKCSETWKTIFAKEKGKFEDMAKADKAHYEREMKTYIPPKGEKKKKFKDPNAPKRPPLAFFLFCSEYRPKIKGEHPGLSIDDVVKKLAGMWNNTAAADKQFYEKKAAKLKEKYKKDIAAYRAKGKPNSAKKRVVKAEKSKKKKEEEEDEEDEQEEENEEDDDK
# UniProt P00441, whole entry, looked up: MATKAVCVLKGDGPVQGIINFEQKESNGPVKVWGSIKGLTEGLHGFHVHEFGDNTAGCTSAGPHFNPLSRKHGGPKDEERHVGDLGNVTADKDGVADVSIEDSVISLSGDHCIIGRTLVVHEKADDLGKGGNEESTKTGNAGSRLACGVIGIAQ
# UniProt Q01082, whole entry, looked up: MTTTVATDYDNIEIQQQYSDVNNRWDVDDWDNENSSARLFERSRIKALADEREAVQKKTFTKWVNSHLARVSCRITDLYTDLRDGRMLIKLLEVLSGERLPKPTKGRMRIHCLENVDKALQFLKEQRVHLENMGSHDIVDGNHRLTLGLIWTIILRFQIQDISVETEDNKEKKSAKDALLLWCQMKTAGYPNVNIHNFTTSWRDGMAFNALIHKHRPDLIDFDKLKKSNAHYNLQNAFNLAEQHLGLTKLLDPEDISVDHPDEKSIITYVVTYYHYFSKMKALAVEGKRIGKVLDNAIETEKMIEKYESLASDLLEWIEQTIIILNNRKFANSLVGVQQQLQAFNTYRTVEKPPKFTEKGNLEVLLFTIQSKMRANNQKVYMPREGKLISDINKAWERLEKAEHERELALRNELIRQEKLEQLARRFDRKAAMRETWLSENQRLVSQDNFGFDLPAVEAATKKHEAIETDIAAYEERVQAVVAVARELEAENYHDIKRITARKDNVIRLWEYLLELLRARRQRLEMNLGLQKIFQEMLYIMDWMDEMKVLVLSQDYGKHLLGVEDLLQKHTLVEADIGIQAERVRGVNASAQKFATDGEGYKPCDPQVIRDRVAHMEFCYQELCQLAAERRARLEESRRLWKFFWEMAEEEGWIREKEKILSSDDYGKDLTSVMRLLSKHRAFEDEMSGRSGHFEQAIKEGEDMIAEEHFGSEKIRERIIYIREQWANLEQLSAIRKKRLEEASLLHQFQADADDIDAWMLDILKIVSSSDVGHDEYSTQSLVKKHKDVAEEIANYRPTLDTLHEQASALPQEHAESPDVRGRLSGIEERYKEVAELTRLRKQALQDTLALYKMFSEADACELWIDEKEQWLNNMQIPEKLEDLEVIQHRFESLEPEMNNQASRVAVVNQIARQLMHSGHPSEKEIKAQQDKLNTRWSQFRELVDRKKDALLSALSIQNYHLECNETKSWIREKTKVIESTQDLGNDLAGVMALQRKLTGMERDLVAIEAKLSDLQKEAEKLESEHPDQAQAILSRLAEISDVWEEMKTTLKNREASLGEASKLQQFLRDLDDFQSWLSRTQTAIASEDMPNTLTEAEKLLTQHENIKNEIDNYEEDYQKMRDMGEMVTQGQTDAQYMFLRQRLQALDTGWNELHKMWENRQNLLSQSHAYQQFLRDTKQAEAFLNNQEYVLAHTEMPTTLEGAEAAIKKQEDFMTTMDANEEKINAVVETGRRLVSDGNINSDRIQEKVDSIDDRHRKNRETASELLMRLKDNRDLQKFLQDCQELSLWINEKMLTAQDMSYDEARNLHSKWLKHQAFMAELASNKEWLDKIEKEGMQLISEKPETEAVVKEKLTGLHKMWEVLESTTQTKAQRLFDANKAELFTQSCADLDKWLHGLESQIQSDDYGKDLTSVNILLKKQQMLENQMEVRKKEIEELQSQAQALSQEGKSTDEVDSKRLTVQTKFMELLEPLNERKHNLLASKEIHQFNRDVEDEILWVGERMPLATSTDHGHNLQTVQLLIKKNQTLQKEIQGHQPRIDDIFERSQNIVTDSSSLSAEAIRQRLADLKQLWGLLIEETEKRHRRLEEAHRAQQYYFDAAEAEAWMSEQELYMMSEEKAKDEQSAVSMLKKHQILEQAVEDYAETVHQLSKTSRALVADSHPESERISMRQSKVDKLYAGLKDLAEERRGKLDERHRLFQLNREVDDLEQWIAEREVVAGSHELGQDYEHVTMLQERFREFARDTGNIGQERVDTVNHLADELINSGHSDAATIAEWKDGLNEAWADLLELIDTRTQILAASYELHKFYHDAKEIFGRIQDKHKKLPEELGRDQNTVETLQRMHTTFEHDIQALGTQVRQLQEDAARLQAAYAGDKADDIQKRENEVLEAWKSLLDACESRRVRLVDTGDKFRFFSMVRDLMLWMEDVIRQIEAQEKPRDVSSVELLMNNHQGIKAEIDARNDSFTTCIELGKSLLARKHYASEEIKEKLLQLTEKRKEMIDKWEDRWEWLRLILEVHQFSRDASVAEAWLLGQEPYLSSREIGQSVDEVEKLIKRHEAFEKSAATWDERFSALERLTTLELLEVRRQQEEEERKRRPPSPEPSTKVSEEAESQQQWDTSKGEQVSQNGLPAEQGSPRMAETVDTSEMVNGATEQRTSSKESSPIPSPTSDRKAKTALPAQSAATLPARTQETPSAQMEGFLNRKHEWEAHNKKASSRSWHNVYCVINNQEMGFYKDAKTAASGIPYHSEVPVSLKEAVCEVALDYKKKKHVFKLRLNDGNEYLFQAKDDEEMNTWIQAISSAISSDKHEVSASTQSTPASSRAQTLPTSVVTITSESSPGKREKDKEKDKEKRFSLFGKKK
# UniProt P18583: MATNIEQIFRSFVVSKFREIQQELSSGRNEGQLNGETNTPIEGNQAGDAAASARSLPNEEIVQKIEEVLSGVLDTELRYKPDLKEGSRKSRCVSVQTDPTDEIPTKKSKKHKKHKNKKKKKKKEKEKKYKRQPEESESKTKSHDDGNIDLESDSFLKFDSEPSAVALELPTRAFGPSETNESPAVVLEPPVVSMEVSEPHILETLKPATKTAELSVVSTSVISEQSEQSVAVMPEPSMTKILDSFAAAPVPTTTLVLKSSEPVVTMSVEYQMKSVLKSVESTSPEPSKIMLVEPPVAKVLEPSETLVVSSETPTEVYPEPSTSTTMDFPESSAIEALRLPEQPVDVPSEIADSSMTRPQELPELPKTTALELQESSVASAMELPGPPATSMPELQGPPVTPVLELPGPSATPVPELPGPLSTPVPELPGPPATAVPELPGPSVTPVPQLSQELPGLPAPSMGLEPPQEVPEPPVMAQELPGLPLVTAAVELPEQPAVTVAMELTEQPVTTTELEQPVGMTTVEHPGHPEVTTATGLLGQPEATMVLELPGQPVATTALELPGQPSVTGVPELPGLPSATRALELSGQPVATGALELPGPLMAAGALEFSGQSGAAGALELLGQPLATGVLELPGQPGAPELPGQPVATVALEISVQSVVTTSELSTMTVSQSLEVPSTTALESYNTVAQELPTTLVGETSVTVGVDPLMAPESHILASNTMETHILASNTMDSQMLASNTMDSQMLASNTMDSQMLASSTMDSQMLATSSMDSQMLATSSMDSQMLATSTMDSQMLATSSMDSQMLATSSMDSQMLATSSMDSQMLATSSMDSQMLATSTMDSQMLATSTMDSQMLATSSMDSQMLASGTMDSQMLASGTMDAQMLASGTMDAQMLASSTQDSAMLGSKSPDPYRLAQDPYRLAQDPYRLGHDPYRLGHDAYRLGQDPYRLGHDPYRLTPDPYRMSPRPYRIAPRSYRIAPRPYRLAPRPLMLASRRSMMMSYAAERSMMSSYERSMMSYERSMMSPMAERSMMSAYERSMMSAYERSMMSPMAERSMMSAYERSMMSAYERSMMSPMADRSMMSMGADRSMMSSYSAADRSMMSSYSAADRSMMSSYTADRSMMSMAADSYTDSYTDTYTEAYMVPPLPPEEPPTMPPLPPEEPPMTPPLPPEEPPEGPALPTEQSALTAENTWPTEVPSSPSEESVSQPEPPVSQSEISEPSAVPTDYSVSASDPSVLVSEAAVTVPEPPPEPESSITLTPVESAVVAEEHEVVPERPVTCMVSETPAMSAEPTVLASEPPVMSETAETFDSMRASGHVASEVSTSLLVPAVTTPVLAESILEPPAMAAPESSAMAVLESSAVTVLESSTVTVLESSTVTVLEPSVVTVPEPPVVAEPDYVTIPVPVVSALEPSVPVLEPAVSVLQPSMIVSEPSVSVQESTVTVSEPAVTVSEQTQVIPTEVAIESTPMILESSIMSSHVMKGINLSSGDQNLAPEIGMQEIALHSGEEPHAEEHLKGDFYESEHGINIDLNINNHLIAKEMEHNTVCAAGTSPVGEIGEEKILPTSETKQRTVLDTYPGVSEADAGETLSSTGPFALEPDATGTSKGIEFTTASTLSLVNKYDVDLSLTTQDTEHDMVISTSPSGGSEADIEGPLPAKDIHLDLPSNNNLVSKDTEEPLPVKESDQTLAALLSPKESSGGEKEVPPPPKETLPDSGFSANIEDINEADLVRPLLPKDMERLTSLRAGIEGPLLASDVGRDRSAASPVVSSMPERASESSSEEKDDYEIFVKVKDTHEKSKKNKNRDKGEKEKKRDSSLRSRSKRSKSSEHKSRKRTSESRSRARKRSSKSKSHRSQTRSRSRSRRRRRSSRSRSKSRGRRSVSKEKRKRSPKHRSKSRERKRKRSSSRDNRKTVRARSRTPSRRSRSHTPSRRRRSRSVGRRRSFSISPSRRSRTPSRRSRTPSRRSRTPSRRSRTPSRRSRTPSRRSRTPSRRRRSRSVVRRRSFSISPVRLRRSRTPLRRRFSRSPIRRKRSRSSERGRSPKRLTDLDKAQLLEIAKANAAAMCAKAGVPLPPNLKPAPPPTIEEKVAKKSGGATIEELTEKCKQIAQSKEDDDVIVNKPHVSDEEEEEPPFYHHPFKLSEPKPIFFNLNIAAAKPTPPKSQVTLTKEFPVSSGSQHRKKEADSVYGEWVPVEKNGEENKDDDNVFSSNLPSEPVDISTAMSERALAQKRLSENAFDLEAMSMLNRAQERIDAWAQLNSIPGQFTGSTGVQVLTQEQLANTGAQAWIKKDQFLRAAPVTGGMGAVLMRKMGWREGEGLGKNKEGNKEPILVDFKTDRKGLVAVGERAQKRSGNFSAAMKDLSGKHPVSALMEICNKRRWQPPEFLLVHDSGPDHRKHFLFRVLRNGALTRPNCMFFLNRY
# UniProt Q86XZ4: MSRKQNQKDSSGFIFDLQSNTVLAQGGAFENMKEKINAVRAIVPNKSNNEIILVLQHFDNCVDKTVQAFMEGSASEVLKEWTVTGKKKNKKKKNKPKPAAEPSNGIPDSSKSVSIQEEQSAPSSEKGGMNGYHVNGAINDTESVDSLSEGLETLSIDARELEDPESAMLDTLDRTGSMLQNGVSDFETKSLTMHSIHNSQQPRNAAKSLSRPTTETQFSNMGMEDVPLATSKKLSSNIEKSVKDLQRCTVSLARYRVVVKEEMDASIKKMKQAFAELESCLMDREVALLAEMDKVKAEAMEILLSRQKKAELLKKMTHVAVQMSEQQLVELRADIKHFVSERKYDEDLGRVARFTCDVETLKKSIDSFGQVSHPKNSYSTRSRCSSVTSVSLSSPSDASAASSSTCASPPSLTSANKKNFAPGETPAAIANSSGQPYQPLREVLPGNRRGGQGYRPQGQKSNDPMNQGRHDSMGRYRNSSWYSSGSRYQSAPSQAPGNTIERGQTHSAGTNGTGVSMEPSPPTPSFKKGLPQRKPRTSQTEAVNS
# UniProt Q8N9Q2: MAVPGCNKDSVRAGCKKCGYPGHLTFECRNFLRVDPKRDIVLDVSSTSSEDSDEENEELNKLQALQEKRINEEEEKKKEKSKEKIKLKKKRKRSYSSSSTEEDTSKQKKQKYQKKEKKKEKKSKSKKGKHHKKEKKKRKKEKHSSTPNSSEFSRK
# Compound: Cc1cc(ccc1-c1ccccc1)C(=O)N1CCCN(CC1)C(=O)CCl [compound 10]
# Assay: probe-labelled cysteine peptide fold change vs DMSO (competition) (log2 fold change); higher = less target engagement (more negative = stronger competition)
# Settings: THP-1, incubation time: 4 h
# 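Note: competitive profiling in live THP-1 cells: cysteine peptides tagged with an iodoacetamide desthiobiotin (IA-DTB) probe, intensity after compound treatment relative to DMSO-treated cells.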
Target,probe-labelled cysteine peptide fold change (10 µM),probe-labelled cysteine peptide fold change (50 µM)
SP100_P23497_309_VECQAQAR (UniProt P23497),-0.17,-0.242
SNX5_Q9Y5X3_250_NVADDYIHTAACLHSLALEEPTVIKK (UniProt Q9Y5X3),-0.206,-0.436
SRCAP_Q6ZRS2_1926_IFQLSEAHGALAPVYGTEVLDFCTLPQPVASPIGPR (UniProt Q6ZRS2),0.324,0.642
SPTAN1_Q13813_1454_MMLDQCLELQLFHRDCEQAENWMAAR (UniProt Q13813),0.453,-0.135
SOD1_P00441_7_AVCVLK (UniProt P00441),0.272,-0.0133
SNX6_Q9UNH7_348_DVLQAETSQQLCCQK (UniProt Q9UNH7),0.158,0.0542
SPTBN1_Q01082_2227_SWHNVYCVINNQEMGFYK (UniProt Q01082),0.249,-0.0578
SRP68_Q9UHB9_586_QANLVHFPPGFQPIPCKPLFFDLALNHVAFPPLEDKLEQK (UniProt Q9UHB9),-0.0926,-0.793
SPATA5L1_Q9BVQ7_685_TMPIGPDVSLENLAAETCFFSGADLR (UniProt Q9BVQ7),0.113,0.107
SRPRA_P08240_424_QRPYVVTFCGVNGVGK (UniProt P08240),0.0797,0.262
SPTLC2_O15270_204_VLEEYGAGVCSTR (UniProt O15270),-0.0137,0.212
SP100_P23497_16_LNECISPVANEMNHLPAHSHDLQR (UniProt P23497),-0.429,-0.732
SON_P18583_92_CVSVQTDPTDEIPTKK (UniProt P18583),-0.351,-1.24
SRM_P19623_209_EDGVLCCQGECQWLHLDLIK (UniProt P19623),0.155,0.837
SPECC1_Q5M775_598_DLLELSCNELRQELLK (UniProt Q5M775),-0.205,-0.713
SPTBN1_Q01082_624_VAHMEFCYQELCQLAAER (UniProt Q01082),0.0239,0.0283
SRP68_Q9UHB9_562_FETFCLDPSLVTK (UniProt Q9UHB9),-0.0556,-0.0627
SPOUT1_Q5T280_10_KRPCGPGEHGQR (UniProt Q5T280),-0.158,-0.321

Target,probe-labelled cysteine peptide fold change (10 µM),probe-labelled cysteine peptide fold change (50 µM)
SPATA5_Q8NB90_291_CNFESAR (UniProt Q8NB90),-0.244,-0.402
SRP9_P49458_48_VTDDLVCLVYK (UniProt P49458),0.216,-0.255
SPAG9_O60271_1210_VTPGTFIPYCSMAHAQLCFHGHR (UniProt O60271),0.231,1.04
SPATS2_Q86XZ4_61_SNNEIILVLQHFDNCVDK (UniProt Q86XZ4),-0.158,-0.611
SPAG7_O75391_101_SILHDVVEVAGLTSFSFGEDDDCR (UniProt O75391),-0.0328,-0.0999
SREBF1_P36956_932_ALLGCAK (UniProt P36956),-0.103,-0.0562
SORBS3_O60504_482_GEHICLIR (UniProt O60504),0.162,-0.222
SON_P18583_2070_ANAAAMCAK (UniProt P18583),-0.121,-0.254
SNX14_Q9Y5W7_593_IPVFCIDVER (UniProt Q9Y5W7),0.0529,0.701
SP140L_Q9H930_429_VFHEDCHIPPVESEK (UniProt Q9H930),-0.0288,0.13
SPINDOC_Q9BUA3_12_AEGAALDCFEVTLK (UniProt Q9BUA3),-0.158,-0.0572
SP1_P08047_691_FACPECPK (UniProt P08047),0.118,0.148
SPAG1_Q07617_680_QDCDQALQLADGNVK (UniProt Q07617),-0.171,0.0218
SRPK1_Q96SB4_455_AEIPCEDEQEQEHNGPLDNK (UniProt Q96SB4),-0.137,-0.0035
SPDL1_Q96EA4_490_EETQSCPNSLEDNNLQLEK (UniProt Q96EA4),0.102,-0.285
SREK1IP1_Q8N9Q2_18_CGYPGHLTFECR (UniProt Q8N9Q2),0.0937,0.23
SPC24_Q8NBT2_155_IEWDYECEPGMVK (UniProt Q8NBT2),-0.17,0.000933

# Reference: the supplement of paper PMC12067093, “Discovery and optimisation of a covalent ligand for TRIM25 and its application to targeted protein ubiquitination” (Chemical Science, 2025)
